Reference: US20240156959A1, “COMBINATION THERAPY FOR THE TREATMENT OF CANCER COMPRISING AN ANTl-EGFR ANTIBODY AND AN AXL-INHIBITOR” (Yeda Research and Development Co. Ltd., priority 2021, published 2024)
Results are given in words; binding and its absence hold for the method and conditions named. Binding seen in cells or lysates may run through a third protein. Some entries that bind do so weakly or less than the wild type.

The chains behind the UniProt entries cited, without tags or fusion partners. Residues count along the entry.
UniProt P30530, residues 26-894: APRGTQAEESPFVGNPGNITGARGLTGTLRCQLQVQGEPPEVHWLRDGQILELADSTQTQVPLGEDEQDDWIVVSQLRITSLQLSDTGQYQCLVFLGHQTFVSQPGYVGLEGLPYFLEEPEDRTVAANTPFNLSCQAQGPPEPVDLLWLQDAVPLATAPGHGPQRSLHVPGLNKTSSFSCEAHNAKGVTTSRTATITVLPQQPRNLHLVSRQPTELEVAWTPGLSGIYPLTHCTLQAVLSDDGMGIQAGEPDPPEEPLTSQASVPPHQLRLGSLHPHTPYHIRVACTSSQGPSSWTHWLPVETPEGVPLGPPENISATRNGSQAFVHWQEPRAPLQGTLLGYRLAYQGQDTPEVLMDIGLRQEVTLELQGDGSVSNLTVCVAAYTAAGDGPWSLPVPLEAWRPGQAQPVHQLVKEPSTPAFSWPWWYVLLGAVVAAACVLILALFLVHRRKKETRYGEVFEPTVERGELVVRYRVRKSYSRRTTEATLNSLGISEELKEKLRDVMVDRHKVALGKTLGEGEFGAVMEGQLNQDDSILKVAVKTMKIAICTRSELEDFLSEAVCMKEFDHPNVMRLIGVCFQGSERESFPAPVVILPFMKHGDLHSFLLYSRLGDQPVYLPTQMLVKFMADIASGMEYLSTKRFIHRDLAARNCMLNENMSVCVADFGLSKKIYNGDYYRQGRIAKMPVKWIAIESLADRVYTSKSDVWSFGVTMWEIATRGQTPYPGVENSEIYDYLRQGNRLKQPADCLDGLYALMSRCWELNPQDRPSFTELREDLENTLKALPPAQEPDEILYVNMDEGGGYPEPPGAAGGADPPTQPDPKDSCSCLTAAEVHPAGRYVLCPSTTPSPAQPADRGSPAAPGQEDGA
UniProt Q9NS91: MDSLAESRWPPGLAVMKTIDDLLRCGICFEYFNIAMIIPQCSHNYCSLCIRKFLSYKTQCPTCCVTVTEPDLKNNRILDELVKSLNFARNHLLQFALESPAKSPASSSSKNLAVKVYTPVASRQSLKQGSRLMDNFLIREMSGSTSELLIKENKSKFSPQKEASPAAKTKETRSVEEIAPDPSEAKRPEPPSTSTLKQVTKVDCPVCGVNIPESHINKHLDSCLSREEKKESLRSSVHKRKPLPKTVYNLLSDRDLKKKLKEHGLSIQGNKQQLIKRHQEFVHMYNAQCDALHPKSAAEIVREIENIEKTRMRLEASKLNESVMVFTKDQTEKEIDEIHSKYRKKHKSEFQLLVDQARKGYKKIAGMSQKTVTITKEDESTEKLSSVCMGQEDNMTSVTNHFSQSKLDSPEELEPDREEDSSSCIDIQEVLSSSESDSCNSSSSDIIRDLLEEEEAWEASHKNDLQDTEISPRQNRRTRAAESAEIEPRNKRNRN

Key:
AXL = AXL (UniProt P30530); test: co-immunoprecipitation with anti-RAD18 or anti-AXL antibody from PC9 and AXL-overexpressing cell extracts, then immunoblot (FIG. 8F)
RAD18 [1] = biological target: RAD18 (UniProt Q9NS91); test: conclusion drawn from co-immunoprecipitation and proximity ligation assay
RAD18 [2] = biological target: RAD18 (UniProt Q9NS91); test: co-immunoprecipitation from PC9 and AXL-overexpressing PC9 cell extracts; proximity ligation assay in PC9 cells

binding (AXL) | binding (RAD18 [1]) | binding (RAD18 [2]) | Substance
binds | – | – | RAD18 (from UniProt Q9NS91 1-495) (enzyme)
– | binds | binds | AXL (from UniProt P30530 26-894) (receptor)
